{
  "source": "patent US20120134979A1",
  "about": "“METHODS AND COMPOSITIONS FOR THE TREATMENT OF SICKLE CELL DISEASE” (priority 2010, published 2012)",
  "molecules": {"B1": {"name": "PEG-ADA: polyethylene glycol-modified adenosine deaminase, a drug used to lower adenosine concentrations in ADA-deficient humans (protein, UniProt P56658 2-363, looked up)", "Adenosine deaminase": "AQTPAFNKPKVELHVHLDGAIKPETILYYGRKRGIALPADTPEELQNIIGMDKPLSLPEFLAKFDYYMPAIAGCREAVKRIAYEFVEMKAKDGVVYVEVRYSPHLLANSKVEPIPWNQAEGDLTPDEVVSLVNQGLQEGERDFGVKVRSILCCMRHQPSWSSEVVELCKKYREQTVVAIDLAGDETIEGSSLFPGHVKAYAEAVKSGVHRTVHAGEVGSANVVKEAVDTLKTERLGHGYHTLEDATLYNRLRQENMHFEVCPWSSYLTGAWKPDTEHPVVRFKNDQVNYSLNTDDPLIFKSTLDTDYQMTKNEMGFTEEEFKRLNINAAKSSFLPEDEKKELLDLLYKAYGMPSPASAEQCL", "modifications": "PEGylated"}},
  "system": "WT mice",
  "assay": "WT (control) mice treated with PEG-ADA or PSB1115 for 8 weeks",
  "format": "in vivo, mouse",
  "conditions": "8 weeks treatment",
  "text": "Mice. Berkley sickle cell disease transgenic mice (SCD Tg mice), expressing exclusively human sickle hemoglobin (HbS) were purchased from The Jackson Laboratory Inc (Paszty, C. Transgenic and gene knock-out mouse models of sickle cell anemia and the thalassemias. Curr Opin Hematol 4, 88-93, 1997). C57BL/6 mice used as controls were purchased from Harlan Laboratories. Adenosine receptor deficient mice were obtained from the following sources: A1R-deficient mice (Jurgen Schnermann, NIDDK, NIH); A2AR-deficient mice (Jiang-Fan Chen, Boston University School of Medicine); A2BR-deficient mice (Michael R. Blackburn, University of Texas-Houston Medical School); and A3R-deficient mice (Marlene Jacobson, Merck Research Laboratories). All receptor deficient mice were backcrossed at least 10 generations onto the C57Blk/6J background and were genotyped according to established protocols (Sun, D., et al. Mediation of tubuloglomerular feedback by adenosine: evidence from mice lacking adenosine receptors. Proc Natl Acad Sci USA 98, 9983-9988, 2001; Nemeth, Z. H., et al. Adenosine receptor activation ameliorates type 1 diabetes. FASEB J, 2007; Chen, J. F., et al. A2A adenosine receptor deficiency attenuates brain injury induced by transient focal ischemia in mice. J Neurosci 19, 9192-9200, 1999; Salvatore, C. A., et al. Disruption of the A3 adenosine receptor gene in mice and its effect on stimulated inflammatory cells. The Journal of Biological Chemistry 275, 4429-4434, 2000). Animals were maintained in accordance with institutional and NIH guidelines under research protocols that were reviewed and approved by the University of Texas Health Science Center at Houston Animal Welfare Committee.\nChronic PEG-ADA therapy. SCD transgenic mice, at eight weeks of age, were divided to two groups. One group was injected with 2.5 U PEG-ADA weekly for 8 weeks. This dosing protocol was designated SCD with PEG-ADA treatment regimen (SCD+PEG-ADA). Another group was injected with normal saline for 8 weeks; it was designated as SCD without PEG-ADA treatment regimen (SCD). Wild-type mice (C57Bl/6) used as control were injected with saline or PEG-ADA as with the SCD groups.\nChronic treatment with A2BR antagonist, PSB1115. SCD transgenic mice or wild type mice (eight weeks of age) were divided to two groups, one groups was injected with 200 μg of PSB1115 (an A2B receptor antagonist: obtained from Tocris Bioscience, St. Louis, Mo.) in PBS, daily for 8 weeks. One of groups was injected with saline.\nMouse organ isolation and histological analysis. Mice were anesthetized and body weight was determined. Organs were isolated and weighed. Half of each organ was quickly frozen in liquid nitrogen and then stored at −80° C. for heme content measurements as described below. The remaining half of each organ was fixed with 4% paraformaldehyde in PBS overnight at 4° C. Fixed tissues were rinsed in PBS, dehydrated through graded ethanol washes, and embedded in paraffin. 5 μm sections were collected on slides and stained with haematoxylin and eosin (H&E). Semiquantification of histological changes was analyzed by Image-Plus, Pro software.",
  "data": [
    {"molecule": "CCCn1c(=O)[nH]c2nc(-c3ccc(S(=O)(=O)O)cc3)[nH]c2c1=O", "note": "[PSB1115, reference compound]", "values": [
      {"measurement": "HCT", "value": "45.26 ± 1.64", "unit": "%"},
      {"measurement": "Hb", "value": "13.28 ± 0.54", "unit": "g/dL"},
      {"measurement": "MCH", "value": "14.4 ± 0.29", "unit": "pg"},
      {"measurement": "MCHC", "value": "29.34 ± 0.41", "unit": "g/dL"},
      {"measurement": "MCV", "value": "49.12 ± 0.80", "unit": "fL"},
      {"measurement": "RBC", "value": "8.81 ± 0.39", "unit": "M/μl"},
      {"measurement": "RDW", "value": "14.1 ± 0.67", "unit": "%"},
      {"measurement": "WBC", "value": "3.89 ± 1.52", "unit": "k/μl"}
    ]},
    {"molecule": "B1", "values": [
      {"measurement": "HCT", "value": "43.83 ± 1.16", "unit": "%"},
      {"measurement": "Hb", "value": "13.28 ± 0.67", "unit": "g/dL"},
      {"measurement": "MCH", "value": "15.07 ± 0.46", "unit": "pg"},
      {"measurement": "MCHC", "value": "30.27 ± 0.79", "unit": "g/dL"},
      {"measurement": "MCV", "value": "49.75 ± 0.54", "unit": "fL"},
      {"measurement": "RBC", "value": "8.81 ± 0.18", "unit": "M/μl"},
      {"measurement": "RDW", "value": "15.05 ± 0.75", "unit": "%"},
      {"measurement": "WBC", "value": "3.27 ± 0.81", "unit": "k/μl"}
    ]}
  ]
}
